# Results from the supplement of paper PMC4604168 (melanoma cell lines).
# The list shows a part of the results. Single values are uncertain, as repeats are few or missing.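 Cells were imaged in 1,536-well plates, and nuclei stained with an antibody against cleaved PARP were counted against all DNA-stained nuclei to give the apoptosis fraction. Screening doses were chosen to leave most cells alive, and resting and induced cleaved-PARP levels differ strongly between cell lines.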
# Tests used:
# Assay in all cases: cleaved PARP positive nuclei fraction relative to DMSO control; melanoma cells; higher = more apoptosis
# Conditions in all cases: library dose: low library concentration; 72 h
# [1] = system: MeWo
# [2] = system: RPMI7951
# [3] = system: RVH-421
# [4] = system: SkMel28
# [5] = system: SkMel30
# [6] = system: SkMel5
# [7] = system: UACC257
# [8] = system: UACC62
# [9] = system: WM115
# [10] = system: WM1716
# [11] = system: WM1745
# [12] = system: WM3526
# [13] = system: WM3619
# [14] = system: WM451Lu
# [15] = system: SkMel2
SMILES,cleaved PARP positive nuclei fraction [1],cleaved PARP positive nuclei fraction [2],cleaved PARP positive nuclei fraction [3],cleaved PARP positive nuclei fraction [4],cleaved PARP positive nuclei fraction [5],cleaved PARP positive nuclei fraction [6],cleaved PARP positive nuclei fraction [7],cleaved PARP positive nuclei fraction [8],cleaved PARP positive nuclei fraction [9],cleaved PARP positive nuclei fraction [10],cleaved PARP positive nuclei fraction [11],cleaved PARP positive nuclei fraction [12],cleaved PARP positive nuclei fraction [13],cleaved PARP positive nuclei fraction [14],cleaved PARP positive nuclei fraction [15]
"O=C(/C=C/c1cccnc1)NCCCCC1CCN(C(=O)c2ccccc2)CC1 + CCN(CC)CCCCNc1ncc2cc(-c3cc(OC)cc(OC)c3)c(NC(=O)NC(C)(C)C)nc2n1 [PD173074] (first compound 0.01 µM, partner dose 0.1 µM)",83.3%,220%,60.2%,88.9%,48.9%,84.7%,92%,110%,20.7%,73.1%,84%,24.6%,92.8%,19.1%,–
"COc1cc([C@@H]2c3cc4c(cc3[C@@H](O[C@@H]3O[C@@H]5CO[C@@H](C)O[C@H]5[C@H](O)[C@H]3O)[C@H]3COC(=O)[C@H]23)OCO4)cc(OC)c1O [etoposide] + O=C(/C=C/c1cccnc1)NCCCCC1CCN(C(=O)c2ccccc2)CC1 [FK866] (first compound 0.02 µM, partner dose 0.01 µM)",113%,144%,56.1%,75.3%,16%,–,–,73%,144%,37.5%,104%,74.3%,129%,77.3%,1100%
"COc1cc([C@@H]2c3cc4c(cc3[C@@H](O[C@@H]3O[C@@H]5CO[C@@H](C)O[C@H]5[C@H](O)[C@H]3O)[C@H]3COC(=O)[C@H]23)OCO4)cc(OC)c1O [etoposide] + Cn1nnc2c(C(N)=O)ncn2c1=O [temozolomide] (first compound 0.02 µM, partner dose 2 µM)",20.5%,185%,–,94%,168%,–,–,91.4%,134%,91.5%,110%,45.3%,106%,48.4%,178%
"CC[C@]1(O)C[C@H]2CN(CCc3c([nH]c4ccccc34)[C@@](C(=O)OC)(c3cc4c(cc3OC)N(C=O)[C@H]3[C@@](O)(C(=O)OC)[C@H](OC(C)=O)[C@]5(CC)C=CCN6CC[C@]43[C@@H]65)C2)C1 [vincristine] + C=C(c1ccc(C(=O)O)cc1)c1cc2c(cc1C)C(C)(C)CCC2(C)C [Bexarotene] (first compound 0.0001 µM, partner dose 2 µM)",106%,47.3%,66.2%,111%,130%,–,–,51.3%,433%,76%,110%,351%,142%,70.6%,139%
"Cc1cc(Nc2cc(N3CCN(C)CC3)nc(Sc3ccc(NC(=O)C4CC4)cc3)n2)n[nH]1 [Tozasertib] + Cc1cc(Nc2cc(N3CCN(C)CC3)nc(/C=C/c3ccccc3)n2)n[nH]1 [ENMD2076] (first compound 0.006 µM, partner dose 0.04 µM)",86.4%,135%,97.5%,78%,97.8%,–,–,129%,118%,35%,100%,36.8%,92.4%,44.9%,98%
"O=C(Nc1cc(C(F)(F)F)cc(C(F)(F)F)c1)c1cc(Cl)ccc1O + Nc1ncn([C@H]2C[C@H](O)[C@@H](CO)O2)c(=O)n1 [decitabine] (first compound 0.016 µM, partner dose 0.1 µM)",105%,42%,91.9%,38.4%,84.4%,–,–,175%,90.6%,40.6%,112%,289%,78.6%,49.8%,–
"Cc1cc(Nc2cc(N3CCN(C)CC3)nc(Sc3ccc(NC(=O)C4CC4)cc3)n2)n[nH]1 [Tozasertib] + Cc1cc(N2CCOCC2)cc2[nH]c(-c3c(NC[C@@H](O)c4cccc(Cl)c4)cc[nH]c3=O)nc12 [BMS536924] (first compound 0.006 µM, partner dose 0.2 µM)",55%,113%,56.1%,22.5%,63.9%,145%,31.8%,74.9%,104%,79%,114%,125%,101%,56.9%,–
"Cc1cn(-c2cc(NC(=O)c3ccc(C)c(Nc4nccc(-c5cccnc5)n4)c3)cc(C(F)(F)F)c2)cn1 [nilotinib] + CCCS(=O)(=O)Nc1ccc(F)c(C(=O)c2c[nH]c3ncc(Cl)cc23)c1F [PLX4720] (first compound 0.2 µM, partner dose 0.08 µM)",110%,224%,123%,25.9%,133%,–,–,220%,72.3%,67.4%,117%,161%,111%,93.6%,–
"Cc1cc(Nc2cc(N3CCN(C)CC3)nc(Sc3ccc(NC(=O)C4CC4)cc3)n2)n[nH]1 [Tozasertib] + N#CC[C@H](C1CCCC1)n1cc(-c2ncnc3[nH]ccc23)cn1 [ruxolitinib] (first compound 0.006 µM, partner dose 1 µM)",71.7%,69.5%,98.8%,121%,65.4%,–,–,75.8%,185%,61.3%,100%,67.8%,101%,195%,71.1%
"Cc1cc(Nc2cc(N3CCN(C)CC3)nc(Sc3ccc(NC(=O)C4CC4)cc3)n2)n[nH]1 [Tozasertib] + CC(C)CCN1c2nc(Nc3cc(F)c(O)c(F)c3)ncc2N(C)C(=O)C1C [BID1870] (first compound 0.006 µM, partner dose 0.2 µM)",24.4%,64.4%,50.1%,236%,312%,83.9%,77.2%,88.1%,160%,269%,98.3%,110%,87.1%,71.6%,–
"O=C(Nc1cc(C(F)(F)F)cc(C(F)(F)F)c1)c1cc(Cl)ccc1O + Cn1c(Nc2ccc(C(F)(F)F)cc2)nc2cc(Oc3ccnc(-c4ncc(C(F)(F)F)[nH]4)c3)ccc21 [CHIR265] (first compound 0.016 µM, partner dose 0.08 µM)",145%,140%,360%,167%,125%,–,–,107%,573%,69%,118%,173%,111%,45.6%,76.8%
"O=C(Nc1cc(C(F)(F)F)cc(C(F)(F)F)c1)c1cc(Cl)ccc1O + CC(=O)O[C@@]12CO[C@@H]1C[C@H](O)[C@@]1(C)C(=O)[C@H](O)C3=C(C)[C@@H](OC(=O)[C@H](O)[C@@H](NC(=O)OC(C)(C)C)c4ccccc4)C[C@@](O)([C@@H](OC(=O)c4ccccc4)[C@H]21)C3(C)C [Docetaxel] (first compound 0.016 µM, partner dose 0.0001 µM)",358%,430%,125%,127%,368%,–,–,261%,213%,157%,128%,86.7%,219%,146%,–
"O=c1[nH]nc(Sc2ncc([N+](=O)[O-])s2)n1-c1ccc2c(c1)OCCO2 + Nc1nc(F)nc2c1ncn2[C@@H]1O[C@H](CO)[C@@H](O)[C@@H]1O [fludarabine] (first compound 0.2 µM, partner dose 0.2 µM)",532%,141%,107%,71.2%,1520%,–,–,355%,240%,104%,115%,619%,105%,169%,913%
"N#CC[C@H](C1CCCC1)n1cc(-c2ncnc3[nH]ccc23)cn1 [ruxolitinib] + NC(=O)c1ccc(N(C(N)=O)c2c(F)cccc2F)nc1-c1ccc(F)cc1F [VX702] (first compound 1 µM, partner dose 0.4 µM)",166%,98.6%,37.8%,40.8%,36.5%,–,–,36.3%,75.8%,119%,90.2%,370%,86.4%,75.5%,–
"O=c1[nH]nc(Sc2ncc([N+](=O)[O-])s2)n1-c1ccc2c(c1)OCCO2 + CS(=O)(=O)CCNCc1ccc(-c2ccc3ncnc(Nc4ccc(OCc5cccc(F)c5)c(Cl)c4)c3c2)o1 [lapatinib] (first compound 0.2 µM, partner dose 0.8 µM)",75%,81.8%,74.9%,64.8%,50.4%,–,–,65.1%,125%,173%,92.8%,162%,88.3%,60.1%,129%

# Record cards (already shown). Values in the order: cleaved PARP positive nuclei fraction [1]	cleaved PARP positive nuclei fraction [2]	cleaved PARP positive nuclei fraction [3]	cleaved PARP positive nuclei fraction [4]	cleaved PARP positive nuclei fraction [5]	cleaved PARP positive nuclei fraction [6]	cleaved PARP positive nuclei fraction [7]	cleaved PARP positive nuclei fraction [8]	cleaved PARP positive nuclei fraction [9]	cleaved PARP positive nuclei fraction [10]	cleaved PARP positive nuclei fraction [11]	cleaved PARP positive nuclei fraction [12]	cleaved PARP positive nuclei fraction [13]	cleaved PARP positive nuclei fraction [14]	cleaved PARP positive nuclei fraction [15]
# N#CC[C@H](C1CCCC1)n1cc(-c2ncnc3[nH]ccc23)cn1 [ruxolitinib] + NC(=O)c1ccc(N(C(N)=O)c2c(F)cccc2F)nc1-c1ccc(F)cc1F [VX702] (first compound 1 µM, partner dose 0.4 µM) in the list: 166%	98.6%	37.8%	40.8%	36.5%	–	–	36.3%	75.8%	119%	90.2%	370%	86.4%	75.5%	–
# O=C(Nc1cc(C(F)(F)F)cc(C(F)(F)F)c1)c1cc(Cl)ccc1O + Cn1c(Nc2ccc(C(F)(F)F)cc2)nc2cc(Oc3ccnc(-c4ncc(C(F)(F)F)[nH]4)c3)ccc21 [CHIR265] (first compound 0.016 µM, partner dose 0.08 µM) in the list: 145%	140%	360%	167%	125%	–	–	107%	573%	69%	118%	173%	111%	45.6%	76.8%
